Structures can show the parent of a compound that is named as a salt. ± gives the standard deviation of the averaged measurements. The list shows a part of the results. Repeats in this data set agree poorly, so a single value says little.
These compounds were tested on A549 (assay: surface PD-L1 immunofluorescence intensity relative to IFN-gamma-only control (ratio); higher = more PD-L1 expression). Settings: 10 µM; exposure time 24 h; IFN-gamma 100 ng/mL.

Compound	surface PD-L1 immunofluorescence intensity
COC(=O)C1=CCCN(C)C1 [Arecoline]	1.04
CC(CN)CC(=O)O (stereo unspecified) [3-Methyl-GABA]	0.961
Fc1ccc(C(OCCN2CCN(CCCc3ccccc3)CC2)c2ccc(F)cc2)cc1	1.0465 ± 0.00067
CC(C)(C)NCC(O)c1cc(Cl)c(N)c(Cl)c1 (stereo unspecified) [Clenbuterol hydrochloride]	1.13
CNCC(=O)c1ccc(O)c(O)c1 [Adrenalone HCl]	0.984
CC(C)(c1ccc(OCC2CO2)cc1)c1ccc(OCC2CO2)cc1 (stereo unspecified)	1.1 ± 0.018
CC(C)N(CCNC(=O)CN1CCCC1=O)C(C)C [Pramiracetam]	0.865
C[C@](O)(COc1ccc(C#N)cc1)C(=O)Nc1ccc(C#N)c(C(F)(F)F)c1 [Ostarine (MK-2866)]	1.06
CCCN(CCC)C1CCc2ccc(O)cc2C1 (stereo unspecified) [7-Hydroxy-DPAT hydrobromide]	1.09
COc1ccc(CCN2CCC(Nc3nc4ccccc4n3Cc3ccc(F)cc3)CC2)cc1 [Astemizole]	0.987
CC(=O)Nc1ccc(OC[C@](C)(O)C(=O)Nc2ccc([N+](=O)[O-])c(C(F)(F)F)c2)cc1 [Andarine (GTX-007)]	1.04
Oc1cc2c(cc1O)[C@H]1c3ccccc3CN[C@@H]1CC2 (racemic) [Dihydrexidine hydrochloride]	1.01
BrC1C(Br)C(Br)C(Br)C(Br)C1Br (stereo unspecified) [1,2,3,4,5,6-Hexabromocyclohexane]	0.971
CCN(CC)C(C)C(=O)c1ccccc1 (stereo unspecified) [Amfepramone hydrochloride]	0.947
COC(=O)/C=C/C(=O)N[C@@H]1CC[C@@]2(O)[C@H]3Cc4ccc(O)c5c4[C@@]2(CCN3CC2CC2)[C@H]1O5	1.05
O=C1CCCN1CC#CCN1CCCC1 [Oxotremorine sesquifumarate]	0.93
O[C@@H]1CCCC[C@H]1N1CCC(c2ccccc2)CC1 [L(-)-vesamicol hydrochloride]	1.09
C[N+]1([O-])[C@@H]2C[C@@H](OC(=O)[C@H](CO)c3ccccc3)C[C@H]1[C@@H]1O[C@@H]12 (stereo partly specified) [Scopolamin-N-oxide hydrobromide]	0.918
Oc1cc(Cl)ccc1Oc1ccc(Cl)cc1Cl [Triclosan]	1.13
CC1(C)C(C=C(Cl)Cl)C1C(=O)OC(C#N)c1cccc(Oc2ccccc2)c1 (stereo unspecified) [Cypermethrin]	1.07
N#CC(C#N)=Cc1ccc(O)cc1 [Tyrphostin 8]	0.846
Cc1ccc(C[N+](C)(C)C)o1 [5-Methylfurmethiodide]	1.01
CCCN(CCC)C1CCc2cccc(O)c2C1 (stereo unspecified) [8-Hydroxy-DPAT hydrobromide]	1.01
O=C(O)c1ccc2[nH]cc(CCCCN3CC=C(c4ccccc4)CC3)c2c1 [Carmoxirole hydrochloride]	0.976
CCN1C[C@]2(COC(=O)c3ccccc3N3C(=O)C[C@H](C)C3=O)CC[C@H](OC)[C@@]34[C@@H]5C[C@H]6[C@H](OC)[C@@H]5[C@](O)(C[C@@H]6OC)[C@](O)([C@@H](OC)[C@H]23)[C@@H]14 [Methyllycaconitine citrate]	1.12
CCN1C[C@]2(COC)[C@H](O)C[C@H](OC)[C@@]34[C@@H]5C[C@@]6(O)[C@H](OC(=O)c7ccccc7)[C@@H]5[C@@](OC(C)=O)([C@@H]([C@H](OC)[C@H]23)[C@@H]14)[C@@H](O)[C@@H]6OC [Aconitine]	1.06

Compound	surface PD-L1 immunofluorescence intensity
C[N+]1(C)[C@@H]2C[C@@H](OC(=O)[C@H](CO)c3ccccc3)C[C@H]1[C@@H]1O[C@@H]12 [Methscopolamine (Pamine)]	1.1
C[C@]12CC[C@H](O)C[C@@H]1CC[C@@H]1[C@@H]2CC[C@]2(C)C(=O)CC[C@@H]12	1.04
C[C@]12CC[C@H](O)C[C@@H]1CC[C@@H]1[C@@H]2CC[C@]2(C)C(=O)CC[C@@H]12 [Epiandrosterone]	1
Cn1cc(C(=O)C(=O)N[C@H]2CN3CCC2CC3)c2ccccc21	1.03
N[C@@]1(C(=O)O)CC[C@@H](C(=O)O)C1	1.15
CCn1cc(C(=O)O)c(=O)c2cc3c(cc21)OCO3 [Oxolinic acid]	0.867
CN(C)C(=O)Oc1cc(OC(=O)N(C)C)cc(C(O)CNC(C)(C)C)c1 (stereo unspecified) [Bambuterol hydrochloride]	0.957
CC[C@@]1([C@@H]2O[C@@H]([C@H]3O[C@@](O)(CO)[C@H](C)C[C@@H]3C)C[C@@H]2C)CC[C@H]([C@]2(C)CC[C@]3(C[C@H](O)[C@@H](C)[C@@H]([C@@H](C)[C@@H](OC)[C@H](C)C(=O)O)O3)O2)O1 [Monensin sodium salt (Coban)]	0.966
CCN(C)C(=O)Oc1cccc([C@H](C)N(C)C)c1 [Rivastigmine]	1.08
CCC1(c2ccc(N)cc2)CCC(=O)NC1=O (stereo unspecified) [Glutethimide, para-amino]	0.894
CN1[C@@H]2CC[C@H]1C[C@@H](OC1c3ccccc3CCc3ccccc31)C2 [Deptropine citrate]	1.01
NCC(O)c1ccc(O)cc1 (racemic) [(+,-)-Octopamine hydrochloride]	1.05
Cc1nc(N)sc1CCN [Amthamine dihydrobromide]	1.08
CN1CCC(c2c[nH]c3ccc(O)cc23)CC1	1.1
CC(C)[C@@]1(NC(=O)[C@@H]2C[C@@H]3c4cccc5[nH]cc(c45)C[C@H]3N(C)C2)O[C@@]2(O)[C@@H]3CCCN3C(=O)[C@H](Cc3ccccc3)N2C1=O [Dihydroergocristine mesylate]	0.998
CC(=O)C1=C(O)[C@@H]2[C@H]3c4c[nH]c5cccc(c45)C[C@H]3C(C)(C)N2C1=O [Cyclopiazonic acid]	1.05
CC(N)Cc1c[nH]c2ccc(OCc3cccs3)cc12 (stereo unspecified) [BW 723C86 hydrochloride]	1.06
C1=C2CCCN[C@H]2[C@@H]2C[C@H]1[C@H]1CCCCN1C2 [Aloperine]	0.999
CCN[C@@H](C)Cc1cccc(C(F)(F)F)c1 [Dexfenfluramine hydrochloride]	1
CC(C)[C@@]1(O)[C@@H](OC(=O)c2ccc[nH]2)[C@@]2(O)[C@@]3(C)C[C@]4(O)O[C@@]5([C@H](O)[C@@H](C)CC[C@]35O)[C@@]2(O)[C@@]14C [Ryanodine]	1.02
COc1ccc(CNC(=O)/C=C/c2ccc3[nH]cc(CCN(C)C)c3c2)cc1	0.891
C[CH2][Hg][S]c1ccccc1C(=O)[O-].[Na+] [Thimerosal]	1.03
C[N+](C)(C)CC#CCN1CCCC1=O [Oxotremorine M]	1.1
CN(C)Cc1c[nH]c2ccccc12 [Gramine]	1.09
C[N+]1(C)CCOC(O)(c2ccc(-c3ccc(C4(O)C[N+](C)(C)CCO4)cc3)cc2)C1 (stereo unspecified) [Hemicholinium bromide]	0.941
COc1cc2c(cc1O)C(CCc1ccc(Cl)cc1)N(C)CC2 (stereo unspecified)	0.988

For convenience, some entries already given:
Compound	surface PD-L1 immunofluorescence intensity
C[N+]1(C)[C@@H]2C[C@@H](OC(=O)[C@H](CO)c3ccccc3)C[C@H]1[C@@H]1O[C@@H]12 [Methscopolamine (Pamine)]	1.1
C[C@]12CC[C@H](O)C[C@@H]1CC[C@@H]1[C@@H]2CC[C@]2(C)C(=O)CC[C@@H]12	1.04
C[C@]12CC[C@H](O)C[C@@H]1CC[C@@H]1[C@@H]2CC[C@]2(C)C(=O)CC[C@@H]12 [Epiandrosterone]	1
Cn1cc(C(=O)C(=O)N[C@H]2CN3CCC2CC3)c2ccccc21	1.03

Following part.

Compound	surface PD-L1 immunofluorescence intensity
COc1ccc(-n2nc(C(F)(F)F)cc2-c2ccc(Cl)cc2)cc1	1.05
Nc1ccncc1 [4-Aminopyridine]	1.03 ± 0.011
C[C@]12CCC(=O)C=C1CC[C@@H]1[C@@H]2C(=O)C[C@]2(C)C(=O)CC[C@@H]12 [Adrenosterone]	0.988
O=P(O)(O)Cc1ccccc1 [Benzylphosphonic acid]	1.04
Cc1ncc(CN2CC=C(c3ccccc3)CC2)c(N)n1	1.02
Cc1[nH]c2ccc(O)cc2c1CCN [2-Methyl-5-hydroxytryptamine hydrochloride]	1
COc1ccc(C(=O)N2CCCC2=O)cc1 [Aniracetam]	0.942 ± 0.13
CC1(C)CCCC(C)(C)N1[O]	0.915
CC(C(=O)OC1CC2CCC(C1)N2C)c1ccc(Br)cc1 (stereo unspecified) [PG-9 maleate]	1.12
O=C(O[C@H]1C[C@H]2CC[C@@H](C1)[N+]21CCCC1)C(O)(c1ccccc1)c1ccccc1 [Trospium chloride (Sanctura)]	0.838
NCC(CS(=O)(=O)O)c1ccc(Cl)cc1 (stereo unspecified) [Saclofen]	1.07
CC[C@@H](C(N)=O)N1CCCC1=O [Levetiracetam]	0.993
O=Cc1cn(Cc2ccc(Cl)cc2)c2ccccc12 [Oncrasin 1]	0.951
c1cc(Cc2cnc[nH]2)ccn1 [Immethridine dihydrobromide]	0.941
Oc1ccc2c3c1O[C@H]1c4[nH]c5c(c4C[C@@]4(O)[C@@H](C2)N(CC2CC2)CC[C@]314)C[C@@]1(O)[C@H]2Cc3ccc(O)c4c3[C@@]1(CCN2CC1CC1)[C@H]5O4 [nor-Binaltorphimine dihydrochloride]	1.02
CCCN1C[C@H](CSC)C[C@@H]2c3cccc4[nH]cc(c34)C[C@H]21 [Pergolide mesylate]	0.953 ± 0.024
N.N.[Cl][Pt][Cl] [Cisplatin]	1
C[N+]1(C)CCc2cc3c(cc2C1C1OC(=O)c2c1ccc1c2OCO1)OCO3 (single isomer, unassigned; (-)) [(-)-Bicuculline methobromide]	0.965
CCC(=O)O[C@@](Cc1ccccc1)(c1ccccc1)[C@@H](C)CN(C)C [Levopropoxyphene napsylate]	1.07
CN1c2ccccc2C(NCCCCCCC(=O)O)c2ccc(Cl)cc2S1(=O)=O (stereo unspecified) [Tianeptine]	0.966
CN1c2ccccc2C(NCCCCCCC(=O)O)c2ccc(Cl)cc2S1(=O)=O (stereo unspecified) [Tianeptine sodium]	1.04
CN1CCN(c2ccc([N+](=O)[O-])c3no[n+]([O-])c23)CC1	1.07
N#Cc1nn(-c2c(Cl)cc(C(F)(F)F)cc2Cl)c(N)c1[S+]([O-])C(F)(F)F (stereo unspecified) [Fipronil]	0.883
CC(C)C[C@@H](N)C1(c2ccc(Cl)cc2)CCC1	0.898

Reference: the supplement of paper PMC8732350
